The list shows a part of the results.

Amino acid sequences for entries named in this document (tags omitted). A change or cut given only in a name is not applied to a line headed by its entry.
UniProt Q7Z569: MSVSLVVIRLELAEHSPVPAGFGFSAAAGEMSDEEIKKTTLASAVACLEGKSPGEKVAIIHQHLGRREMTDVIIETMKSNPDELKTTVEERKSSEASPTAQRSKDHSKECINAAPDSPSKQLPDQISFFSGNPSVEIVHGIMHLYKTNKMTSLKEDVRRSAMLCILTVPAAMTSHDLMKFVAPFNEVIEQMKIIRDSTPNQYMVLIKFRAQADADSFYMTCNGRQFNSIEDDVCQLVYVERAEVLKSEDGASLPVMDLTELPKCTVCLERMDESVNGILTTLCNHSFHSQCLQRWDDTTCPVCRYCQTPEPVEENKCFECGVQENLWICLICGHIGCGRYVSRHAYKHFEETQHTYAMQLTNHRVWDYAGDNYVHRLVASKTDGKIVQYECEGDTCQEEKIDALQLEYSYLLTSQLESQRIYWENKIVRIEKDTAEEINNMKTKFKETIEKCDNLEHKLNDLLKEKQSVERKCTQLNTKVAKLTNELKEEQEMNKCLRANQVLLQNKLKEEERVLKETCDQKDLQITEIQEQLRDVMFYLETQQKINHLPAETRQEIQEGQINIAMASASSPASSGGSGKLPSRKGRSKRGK
UniProt Q92843: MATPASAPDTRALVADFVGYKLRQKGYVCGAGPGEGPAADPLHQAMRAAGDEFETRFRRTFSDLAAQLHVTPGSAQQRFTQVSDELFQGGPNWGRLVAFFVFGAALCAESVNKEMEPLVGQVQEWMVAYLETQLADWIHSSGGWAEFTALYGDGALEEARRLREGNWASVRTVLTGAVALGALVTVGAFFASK
UniProt Q9P287, whole entry, looked up: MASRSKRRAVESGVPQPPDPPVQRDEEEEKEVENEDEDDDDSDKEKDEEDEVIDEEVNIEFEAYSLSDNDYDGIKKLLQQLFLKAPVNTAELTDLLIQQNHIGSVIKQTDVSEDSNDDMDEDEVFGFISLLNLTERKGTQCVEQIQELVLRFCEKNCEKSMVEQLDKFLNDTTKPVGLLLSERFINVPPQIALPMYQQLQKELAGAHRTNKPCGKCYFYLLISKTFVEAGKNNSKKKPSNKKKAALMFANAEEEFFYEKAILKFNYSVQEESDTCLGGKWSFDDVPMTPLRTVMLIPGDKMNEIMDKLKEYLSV
UniProt Q8TD16, whole entry, looked up: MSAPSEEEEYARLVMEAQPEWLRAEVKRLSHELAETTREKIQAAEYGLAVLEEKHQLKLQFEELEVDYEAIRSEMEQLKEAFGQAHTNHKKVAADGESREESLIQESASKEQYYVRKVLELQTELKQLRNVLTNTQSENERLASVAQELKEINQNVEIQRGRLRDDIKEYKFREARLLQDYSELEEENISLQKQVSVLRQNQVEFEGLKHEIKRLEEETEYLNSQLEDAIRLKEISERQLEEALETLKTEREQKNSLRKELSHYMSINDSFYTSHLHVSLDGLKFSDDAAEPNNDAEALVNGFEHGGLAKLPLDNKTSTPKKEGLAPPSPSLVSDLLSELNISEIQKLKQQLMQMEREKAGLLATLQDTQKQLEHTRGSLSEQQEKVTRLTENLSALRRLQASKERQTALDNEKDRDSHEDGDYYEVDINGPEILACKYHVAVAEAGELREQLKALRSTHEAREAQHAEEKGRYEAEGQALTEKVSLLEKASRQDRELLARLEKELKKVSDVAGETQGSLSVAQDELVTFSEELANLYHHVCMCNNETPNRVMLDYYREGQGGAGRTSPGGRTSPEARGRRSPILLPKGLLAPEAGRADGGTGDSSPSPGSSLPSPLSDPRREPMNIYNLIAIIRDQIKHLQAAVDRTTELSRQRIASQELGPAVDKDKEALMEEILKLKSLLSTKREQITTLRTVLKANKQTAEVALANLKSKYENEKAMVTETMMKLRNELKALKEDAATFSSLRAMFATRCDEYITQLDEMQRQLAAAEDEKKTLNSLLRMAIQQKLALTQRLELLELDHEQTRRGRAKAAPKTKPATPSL
UniProt P46379: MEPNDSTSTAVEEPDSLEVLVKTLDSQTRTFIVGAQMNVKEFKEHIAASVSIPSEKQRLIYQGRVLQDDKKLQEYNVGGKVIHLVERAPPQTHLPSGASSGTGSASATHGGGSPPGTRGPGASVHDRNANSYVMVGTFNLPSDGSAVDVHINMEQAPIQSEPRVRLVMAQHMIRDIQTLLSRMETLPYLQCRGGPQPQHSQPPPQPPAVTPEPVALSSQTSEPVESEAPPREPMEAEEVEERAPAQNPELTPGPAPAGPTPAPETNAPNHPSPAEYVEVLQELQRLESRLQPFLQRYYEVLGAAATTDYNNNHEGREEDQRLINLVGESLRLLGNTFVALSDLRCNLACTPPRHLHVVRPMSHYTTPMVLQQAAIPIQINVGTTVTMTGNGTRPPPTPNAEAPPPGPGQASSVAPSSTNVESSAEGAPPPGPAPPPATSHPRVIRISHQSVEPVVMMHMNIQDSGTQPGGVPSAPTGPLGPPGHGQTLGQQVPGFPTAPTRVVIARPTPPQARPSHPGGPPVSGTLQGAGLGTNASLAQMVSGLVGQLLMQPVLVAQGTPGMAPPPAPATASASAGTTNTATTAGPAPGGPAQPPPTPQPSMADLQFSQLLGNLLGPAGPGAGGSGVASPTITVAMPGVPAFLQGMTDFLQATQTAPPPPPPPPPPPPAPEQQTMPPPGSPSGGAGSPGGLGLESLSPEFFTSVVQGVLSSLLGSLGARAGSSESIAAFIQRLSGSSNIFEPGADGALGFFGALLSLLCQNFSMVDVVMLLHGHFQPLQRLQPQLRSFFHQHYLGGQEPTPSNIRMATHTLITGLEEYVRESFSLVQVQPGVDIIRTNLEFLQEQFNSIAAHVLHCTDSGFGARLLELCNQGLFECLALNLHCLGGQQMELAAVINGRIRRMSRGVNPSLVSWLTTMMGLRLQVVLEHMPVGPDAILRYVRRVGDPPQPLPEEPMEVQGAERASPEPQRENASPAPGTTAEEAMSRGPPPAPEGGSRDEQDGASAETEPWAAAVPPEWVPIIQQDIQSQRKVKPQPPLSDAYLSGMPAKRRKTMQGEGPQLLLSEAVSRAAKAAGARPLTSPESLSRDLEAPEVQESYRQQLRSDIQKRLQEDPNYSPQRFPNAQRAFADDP
UniProt Q8TDN6: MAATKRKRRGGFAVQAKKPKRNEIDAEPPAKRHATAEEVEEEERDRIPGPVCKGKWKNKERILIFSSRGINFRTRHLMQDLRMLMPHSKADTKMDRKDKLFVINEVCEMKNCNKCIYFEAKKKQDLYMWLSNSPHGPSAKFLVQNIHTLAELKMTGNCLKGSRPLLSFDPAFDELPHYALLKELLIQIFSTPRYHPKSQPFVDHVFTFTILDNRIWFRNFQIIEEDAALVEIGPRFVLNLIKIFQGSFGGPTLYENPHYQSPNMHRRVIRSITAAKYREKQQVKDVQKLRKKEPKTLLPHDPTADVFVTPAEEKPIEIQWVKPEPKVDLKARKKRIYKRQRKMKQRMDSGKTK
UniProt O94766: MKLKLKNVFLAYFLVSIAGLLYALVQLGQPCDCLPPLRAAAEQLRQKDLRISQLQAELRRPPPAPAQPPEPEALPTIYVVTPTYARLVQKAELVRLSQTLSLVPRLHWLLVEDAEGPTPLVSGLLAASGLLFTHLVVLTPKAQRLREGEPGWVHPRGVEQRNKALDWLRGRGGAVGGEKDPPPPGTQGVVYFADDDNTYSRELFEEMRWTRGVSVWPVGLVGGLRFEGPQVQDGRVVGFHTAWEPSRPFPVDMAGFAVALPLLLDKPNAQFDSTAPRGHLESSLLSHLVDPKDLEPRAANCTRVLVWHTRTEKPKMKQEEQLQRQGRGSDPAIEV
UniProt Q67FW5: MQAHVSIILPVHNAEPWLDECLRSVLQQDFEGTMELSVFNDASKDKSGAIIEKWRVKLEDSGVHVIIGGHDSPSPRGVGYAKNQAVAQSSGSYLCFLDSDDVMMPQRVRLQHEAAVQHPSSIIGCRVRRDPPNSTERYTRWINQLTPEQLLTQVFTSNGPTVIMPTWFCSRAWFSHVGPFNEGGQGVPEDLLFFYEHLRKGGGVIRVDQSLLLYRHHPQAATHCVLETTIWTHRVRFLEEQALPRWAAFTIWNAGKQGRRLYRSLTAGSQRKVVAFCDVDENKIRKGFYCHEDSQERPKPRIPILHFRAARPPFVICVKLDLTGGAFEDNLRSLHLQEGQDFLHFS
UniProt O75934: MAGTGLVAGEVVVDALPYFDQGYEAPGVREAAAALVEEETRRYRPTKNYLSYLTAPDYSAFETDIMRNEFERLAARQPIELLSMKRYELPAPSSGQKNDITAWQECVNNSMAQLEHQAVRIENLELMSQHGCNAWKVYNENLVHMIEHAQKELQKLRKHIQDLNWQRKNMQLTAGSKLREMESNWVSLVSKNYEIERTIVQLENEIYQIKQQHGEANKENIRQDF
UniProt Q9UL45: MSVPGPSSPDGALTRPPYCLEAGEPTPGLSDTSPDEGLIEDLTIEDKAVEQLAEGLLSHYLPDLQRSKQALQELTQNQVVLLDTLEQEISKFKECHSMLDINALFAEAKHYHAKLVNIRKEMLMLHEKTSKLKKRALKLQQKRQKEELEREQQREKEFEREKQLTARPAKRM
UniProt Q9Y276: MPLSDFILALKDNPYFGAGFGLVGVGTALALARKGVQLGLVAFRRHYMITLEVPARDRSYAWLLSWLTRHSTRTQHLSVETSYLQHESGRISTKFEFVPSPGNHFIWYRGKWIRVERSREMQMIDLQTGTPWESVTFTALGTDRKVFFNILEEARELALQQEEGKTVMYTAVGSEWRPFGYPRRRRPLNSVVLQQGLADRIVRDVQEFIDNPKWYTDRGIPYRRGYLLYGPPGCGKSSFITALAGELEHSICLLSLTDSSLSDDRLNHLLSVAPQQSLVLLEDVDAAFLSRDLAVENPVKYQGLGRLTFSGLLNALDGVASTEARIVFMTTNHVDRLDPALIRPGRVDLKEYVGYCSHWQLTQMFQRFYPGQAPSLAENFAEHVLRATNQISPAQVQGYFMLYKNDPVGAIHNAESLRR
UniProt Q8NBF6: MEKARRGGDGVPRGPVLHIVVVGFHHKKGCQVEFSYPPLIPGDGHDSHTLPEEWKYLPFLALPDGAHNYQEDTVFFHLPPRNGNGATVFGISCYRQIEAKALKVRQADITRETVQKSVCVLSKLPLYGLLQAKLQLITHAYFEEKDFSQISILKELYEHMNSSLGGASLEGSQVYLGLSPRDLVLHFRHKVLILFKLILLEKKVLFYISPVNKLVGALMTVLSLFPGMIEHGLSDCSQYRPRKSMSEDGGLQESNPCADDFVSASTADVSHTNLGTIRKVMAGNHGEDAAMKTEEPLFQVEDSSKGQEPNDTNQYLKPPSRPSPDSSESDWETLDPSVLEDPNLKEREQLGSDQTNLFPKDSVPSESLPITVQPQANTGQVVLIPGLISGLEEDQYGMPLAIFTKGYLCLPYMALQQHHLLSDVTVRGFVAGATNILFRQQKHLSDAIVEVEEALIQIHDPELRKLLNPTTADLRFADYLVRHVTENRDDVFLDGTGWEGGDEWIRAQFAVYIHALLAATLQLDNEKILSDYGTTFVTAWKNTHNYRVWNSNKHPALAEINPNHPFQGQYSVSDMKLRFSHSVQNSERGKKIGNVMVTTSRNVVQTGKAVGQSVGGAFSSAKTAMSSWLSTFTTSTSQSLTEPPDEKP
UniProt Q6QNY1: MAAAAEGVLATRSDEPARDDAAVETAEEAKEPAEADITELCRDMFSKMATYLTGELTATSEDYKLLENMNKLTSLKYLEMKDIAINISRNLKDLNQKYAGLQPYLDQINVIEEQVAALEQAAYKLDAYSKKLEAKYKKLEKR
UniProt Q6PJG6: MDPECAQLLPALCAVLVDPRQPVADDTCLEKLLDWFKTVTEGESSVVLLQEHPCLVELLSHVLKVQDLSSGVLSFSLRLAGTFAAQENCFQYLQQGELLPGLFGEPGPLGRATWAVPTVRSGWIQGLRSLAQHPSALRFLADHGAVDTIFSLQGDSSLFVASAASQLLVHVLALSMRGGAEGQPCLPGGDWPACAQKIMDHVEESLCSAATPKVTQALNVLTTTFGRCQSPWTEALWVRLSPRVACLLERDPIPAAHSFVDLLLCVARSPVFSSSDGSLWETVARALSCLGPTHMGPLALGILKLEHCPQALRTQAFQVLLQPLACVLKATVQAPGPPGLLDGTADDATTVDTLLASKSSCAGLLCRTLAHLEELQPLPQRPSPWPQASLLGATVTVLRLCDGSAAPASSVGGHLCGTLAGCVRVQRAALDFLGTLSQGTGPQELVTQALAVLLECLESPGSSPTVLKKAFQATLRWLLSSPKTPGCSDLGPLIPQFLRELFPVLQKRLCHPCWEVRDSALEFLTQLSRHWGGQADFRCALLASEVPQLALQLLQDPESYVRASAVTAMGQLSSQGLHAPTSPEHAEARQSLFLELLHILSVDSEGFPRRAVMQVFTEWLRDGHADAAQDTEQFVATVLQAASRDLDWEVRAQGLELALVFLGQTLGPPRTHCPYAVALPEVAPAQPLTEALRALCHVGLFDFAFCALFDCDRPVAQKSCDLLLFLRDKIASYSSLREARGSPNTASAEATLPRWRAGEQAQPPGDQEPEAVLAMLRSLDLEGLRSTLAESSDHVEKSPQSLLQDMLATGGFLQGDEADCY

This note sets out measurements from the supplement of paper PMC10849652.

Compound in the first experiment: C=CC(=O)N1CCC[C@@H](n2nc(-c3ccc(Oc4ccccc4)cc3)c3c(N)ncnc32)C1 [ibrutinib]
Nature of the experiment: log2 fold change, soluble protein after heating vs DMSO (PISA); higher = thermal stabilisation; K562 cells, 10 uM, 30 min; active = over 0.2 and 3.5 SD of the protein, either way, in both replicates (recomputed). The gist of the method:
(§1)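 K562 cells at 2×10^6 cells/mL were treated for 30 min with 10 μM compound, and aliquots were heated for 3 min over 48°C-58°C before pooling. Extraction used PBS with 0.5% NP-40 at 4°C, and soluble protein was the supernatant after 21,000xg for 90 min, measured by TMTpro 16plex LC-MS/MS with channel sums equalised. Thermal stability values, relative to control samples and from duplicates, are log2 fold changes.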
On to ATXN2 (UniProt Q99700), for which the log2 fold change is inactive: 0.026.
Consider BCAR1 isoform 6 (UniProt P56945), for which the log2 fold change is inactive: -0.035.
Take BPGM (UniProt P07738): the log2 fold change is inactive: 0.038.
As for BRAP (UniProt Q7Z569), the log2 fold change was inactive: -0.066.
For the target BAX isoform 2 (UniProt Q07812), the log2 fold change is inactive: -0.033.
As for BPHL (UniProt Q86WA6), the log2 fold change was inactive: -0.062.
On the same count and under the same terms, next, BCL2L2 isoform 2 (UniProt Q92843): inactive: 0.07.
The same measure, in the same setting: the figure for BACH1 (UniProt O14867) is inactive: 0.009.
BAIAP2L1 (UniProt Q9UHR4): the log2 fold change is inactive: -0.003.
Regarding BCCIP (UniProt Q9P287), the log2 fold change is inactive: -0.063.
On to BLOC1S4 (UniProt Q9NUP1), for which the log2 fold change is inactive: 0.012.
The same measure, in the same setting: the figure for BICD2 isoform 2 (UniProt Q8TD16) is inactive: 0; for BAG6 isoform 3 (UniProt P46379) it is inactive: -0.02.
Take BRIX1 (UniProt Q8TDN6): the log2 fold change was inactive: -0.011.
For AUP1 (UniProt Q9Y679), the log2 fold change was inactive: -0.026.
For B4GALT1 (UniProt P15291), the log2 fold change was inactive: -0.057.
Still for that read-out and setting: the figure for BIRC2 (UniProt Q13490) is inactive: -0.004; for ATXN7L3B (UniProt Q96GX2) it is inactive: 0.01.
On the same count and under the same terms, the figure for ATXN2L (UniProt Q8WWM7) is inactive: 0.013.
As for BORCS5 (UniProt Q969J3), the log2 fold change is inactive: 0.001.
On the same count and under the same terms, next, B3GAT3 (UniProt O94766): inactive: 0.016; BNIP2 (UniProt J3KN59): inactive: -0.026.
As to B3GNTL1 (UniProt Q67FW5), the log2 fold change was inactive: -0.052.
In the case of BCAS2 (UniProt O75934), the log2 fold change is inactive: -0.008.
Regarding BLOC1S6 (UniProt Q9UL45), the log2 fold change was inactive: -0.031.
In the case of BLVRA (UniProt P53004), the log2 fold change was inactive: -0.017.
For the target BOP1 (UniProt Q14137), the log2 fold change is inactive: 0.01.
Still for that read-out and setting: next, BCS1L (UniProt Q9Y276): inactive: 0.03; BRCC3 (UniProt P46736): inactive: -0.011; BCCIP isoform 2 (UniProt Q9P287): inactive: -0.025.
With BOD1L1 (UniProt Q8NFC6), the log2 fold change was inactive: -0.012.
Take B3GNT2 (UniProt Q9NY97): the log2 fold change is inactive: 0.027.
Consider B4GALT3 (UniProt O60512), for which the log2 fold change is inactive: 0.012.
Consider AVL9 (UniProt Q8NBF6), for which the log2 fold change is inactive: -0.002.
For the target BAP1 (UniProt Q92560), the log2 fold change was inactive: -0.056.
As to BLOC1S2 (UniProt Q6QNY1), the log2 fold change is inactive: -0.001.
Still for that read-out and setting: next, BCAP29 isoform 2 (UniProt Q9UHQ4): inactive: -0.014; BRAT1 (UniProt Q6PJG6): inactive: 0.008.
On the same count and under the same terms, the figure for BORCS6 (UniProt Q96GS4) is inactive: -0.028; for AURKA (UniProt O14965) it is inactive: 0.193.

Compound in a further experiment: CC(=O)c1cnc2ccc(-c3cc(Cl)c(O)c(Cl)c3)nc2c1N[C@H]1CC[C@H](CN(C)C)CC1
The experiment is described as above. The gist of the method:
as §1
For ATXN2 (UniProt Q99700), the log2 fold change was inactive: -0.039.
As to BCAR1 isoform 6 (UniProt P56945), the log2 fold change was inactive: 0.031.
BPGM (UniProt P07738): the log2 fold change was inactive: -0.019.
As for BRAP (UniProt Q7Z569), the log2 fold change was inactive: -0.018.
With BAX isoform 2 (UniProt Q07812), the log2 fold change was inactive: -0.023.
For the target BPHL (UniProt Q86WA6), the log2 fold change is inactive: -0.034.
As to BCL2L2 isoform 2 (UniProt Q92843), the log2 fold change was inactive: -0.02.
Consider BACH1 (UniProt O14867), for which the log2 fold change is inactive: -0.066.
BAIAP2L1 (UniProt Q9UHR4): the log2 fold change is inactive: -0.052.
Consider BCCIP (UniProt Q9P287), for which the log2 fold change was inactive: -0.06.
As for BLOC1S4 (UniProt Q9NUP1), the log2 fold change was inactive: -0.051.
Consider BICD2 isoform 2 (UniProt Q8TD16), for which the log2 fold change was inactive: -0.046.
Regarding BAG6 isoform 3 (UniProt P46379), the log2 fold change is inactive: 0.02.
With BRIX1 (UniProt Q8TDN6), the log2 fold change was inactive: 0.021.
Turning to AUP1 (UniProt Q9Y679), the log2 fold change is inactive: 0.003.
With B4GALT1 (UniProt P15291), the log2 fold change was inactive: -0.019.
Turning to BIRC2 (UniProt Q13490), the log2 fold change is inactive: -0.071.
With ATXN7L3B (UniProt Q96GX2), the log2 fold change is inactive: -0.009.
As for ATXN2L (UniProt Q8WWM7), the log2 fold change was inactive: -0.043.
Still for that read-out and setting: the figure for BORCS5 (UniProt Q969J3) is inactive: 0.024; for B3GAT3 (UniProt O94766) it is inactive: 0.002.
With BNIP2 (UniProt J3KN59), the log2 fold change is inactive: -0.01.
Turning to B3GNTL1 (UniProt Q67FW5), the log2 fold change is inactive: 0.007.
Regarding BCAS2 (UniProt O75934), the log2 fold change was inactive: 0.21.
On to BLOC1S6 (UniProt Q9UL45), for which the log2 fold change was inactive: 0.035.
On to BLVRA (UniProt P53004), for which the log2 fold change is inactive: -0.057.
In the case of BOP1 (UniProt Q14137), the log2 fold change is inactive: -0.083.
In the case of BCS1L (UniProt Q9Y276), the log2 fold change is inactive: 0.008.
In the case of BRCC3 (UniProt P46736), the log2 fold change is inactive: -0.026.
On the same count and under the same terms, next, BCCIP isoform 2 (UniProt Q9P287): inactive: 0.008; BOD1L1 (UniProt Q8NFC6): inactive: -0.204.
Take B3GNT2 (UniProt Q9NY97): the log2 fold change is inactive: 0.02.
Same read-out and setting: the figure for B4GALT3 (UniProt O60512) is inactive: -0.009.
Consider AVL9 (UniProt Q8NBF6), for which the log2 fold change is inactive: -0.041.
BAP1 (UniProt Q92560): the log2 fold change was inactive: -0.125.
Consider BLOC1S2 (UniProt Q6QNY1), for which the log2 fold change was inactive: 0.026.
Take BCAP29 isoform 2 (UniProt Q9UHQ4): the log2 fold change was inactive: 0.011.
Turning to BRAT1 (UniProt Q6PJG6), the log2 fold change was inactive: 0.02.
Regarding BORCS6 (UniProt Q96GS4), the log2 fold change is inactive: -0.001.
As for AURKA (UniProt O14965), the log2 fold change is active: 0.914.
